The list shows only some results of the screen, not a fair sample: it is rich in T/C values a quarter to a half above the control, in often repeated tests (any T/C) and in doses without a T/C. Other doses and runs of a compound stand elsewhere. T/C is the treated group as % of the vehicle group. Some entries give survivors of the animals treated and no T/C: the source files T/C as zero there, which appears to mark a toxic dose or a test without result, not a measured value. Some survivor counts are full or nearly so, which does not show that the dose was tolerated: the source hardly ever lists a survival T/C far under the control, and the zero likely stands for such cases as well. Survivors were counted at the toxicity check, usually on the fifth day, unless a day is given; later deaths do not show. Schedule codes are those of the source, taken here to give the interval after Q, in days (D) or hours (H), and the number of doses after X. Some structures stand for samples that the source files as different forms (salt, stereo form or complex); doses refer to the form tested. Some schedules carry Z or #; the key to these is not given. For survival time, the PubChem record calls one and a half times the control and up active, and a quarter to a half above the control has no call in these data; cut-offs in other NCI protocols can differ. Brackets with × count equal records among those shown. Some doses were run more than once; the results are listed from low to high.
System: L1210 leukemia ip in BDF1 mice, survival T/C
Assay: NCI In Vivo Anticancer Drug Screen. Data for tumor model L1210 Leukemia (intraperitoneal) in B6D2F1 (BDF1) mice
Conditions: higher T/C = longer survival
[1] = T/C endpoint: mean survival time, dose: 100.0 mg/kg/injection, schedule: Q01DX009 (ip), vehicle: saline
[2] = T/C endpoint: mean survival time, dose: 200.0 mg/kg/injection, schedule: Q01DX009 (ip), vehicle: saline
[3] = T/C endpoint: mean survival time, dose: 400.0 mg/kg/injection, schedule: Q01DX009 (ip), vehicle: saline
[4] = T/C endpoint: mean survival time, dose: 400.0 mg/kg/injection, schedule: Q01DX001 (ip), vehicle: carboxymethylcellulose (CMC)
[5] = T/C endpoint: mean survival time, dose: 200.0 mg/kg/injection, schedule: Q04DX002 (ip), vehicle: Klucel (hydroxypropylcellulose) (HPC)
[6] = T/C endpoint: mean survival time, dose: 400.0 mg/kg/injection, schedule: Q04DX003 (ip), vehicle: Klucel (hydroxypropylcellulose) (HPC)
[7] = T/C endpoint: mean survival time, dose: 400.0 mg/kg/injection, schedule: Q04DX003 (ip), vehicle: saline
[8] = T/C endpoint: mean survival time, dose: 400.0 mg/kg/injection, schedule: Q01DX001 (ip), vehicle: saline
[9] = T/C endpoint: mean survival time, dose: 150.0 mg/kg/injection, schedule: Q01DX001 (ip), vehicle: saline
[10] = T/C endpoint: mean survival time, dose: 300.0 mg/kg/injection, schedule: Q01DX001 (ip), vehicle: saline
[11] = T/C endpoint: mean survival time, dose: 400.0 mg/kg/injection, schedule: Q01DX009 (ip), vehicle: Klucel (hydroxypropylcellulose) (HPC)
[12] = T/C endpoint: mean survival time, dose: 400.0 mg/kg/injection, schedule: Q04DX002 (ip), vehicle: Klucel (hydroxypropylcellulose) (HPC)

Nc1ncnc2[nH]ncc12
T/C (T/C endpoint: mean survival time, dose: 12.0 mg/kg/injection, schedule: Q02DX010 (ip), vehicle: carboxymethylcellulose (CMC)): 104, 105 (2×), 117, 120, 121 % of control
T/C (T/C endpoint: mean survival time, dose: 18.76 mg/kg/injection, schedule: Q02DX010 (ip), vehicle: carboxymethylcellulose (CMC)): 93, 105, 113, 121, 130, 138 % of control
T/C (T/C endpoint: mean survival time, dose: 28.0 mg/kg/injection, schedule: Q02DX010 (ip), vehicle: carboxymethylcellulose (CMC)): 110 (2×), 111, 112, 136, 142 % of control
T/C (T/C endpoint: mean survival time, dose: 42.0 mg/kg/injection, schedule: Q02DX010 (ip), vehicle: carboxymethylcellulose (CMC)): 102, 113, 115, 120, 128, 132 % of control
survivor count (T/C endpoint: mean survival time, dose: 50.0 mg/kg/injection, schedule: Q01DX009 (ip), vehicle: saline): 6 of 6
T/C (T/C endpoint: mean survival time, dose: 63.0 mg/kg/injection, schedule: Q02DX010 (ip), vehicle: carboxymethylcellulose (CMC)): 104, 113, 115 (2×), 134, 144 % of control
survivor count [1]: 6 of 6
survivor count [2]: 1 of 6
survivor count (T/C endpoint: mean survival time, dose: 273.0 mg/kg/injection, schedule: Q01DX001 (ip), vehicle: carboxymethylcellulose (CMC)): 3 of 6
survivor count [3]: 0 of 6
survivor count (T/C endpoint: mean survival time, dose: 410.0 mg/kg/injection, schedule: Q01DX001 (ip), vehicle: carboxymethylcellulose (CMC)): 0 of 6
T/C (T/C endpoint: median survival time, dose: 12.0 mg/kg/injection, schedule: Q01DX009 (ip), vehicle: saline): 127 % of control

CCOC(=O)/C(C(=O)c1ccccc1)=C(\OC(=O)c1ccccc1)c1ccccc1
survivor count [4]: 4 of 4

Nc1nc(N)c(CCCc2ccccc2)c(N)n1
survivor count (T/C endpoint: mean survival time, dose: 50.0 mg/kg/injection, schedule: Q04DX002 (ip), vehicle: Klucel (hydroxypropylcellulose) (HPC)): 0 of 3
survivor count [5]: 3 of 3

COc1c(C)c2c(c(Br)c1N)COCO2
survivor count [6]: 4 of 6

CC(O)(C(=O)O)c1ccc(Cl)c(Cl)c1 (stereo unspecified)
survivor count (T/C endpoint: mean survival time, dose: 50.0 mg/kg/injection, schedule: Q01DX009 (ip), vehicle: saline with Tween-80): 3 of 3
survivor count (T/C endpoint: mean survival time, dose: 100.0 mg/kg/injection, schedule: Q01DX009 (ip), vehicle: saline with Tween-80): 3 of 3

c1cc[c]([Sb]([c]2ccccc2)[n]2ccnc2)cc1
survivor count (T/C endpoint: mean survival time, dose: 20.0 mg/kg/injection, schedule: Q04DX002 (ip), vehicle: saline with Tween-80): 0 of 3
survivor count (T/C endpoint: mean survival time, dose: 100.0 mg/kg/injection, schedule: Q04DX002 (ip), vehicle: saline with Tween-80): 0 of 3
survivor count (T/C endpoint: mean survival time, dose: 200.0 mg/kg/injection, schedule: Q04DX002 (ip), vehicle: saline with Tween-80): 0 of 3
survivor count (T/C endpoint: mean survival time, dose: 400.0 mg/kg/injection, schedule: Q04DX002 (ip), vehicle: saline with Tween-80): 0 of 3

O=S(=O)(O)c1ccccn1
survivor count [7]: 2 of 6

CCSCN(C)C
survivor count [2]: 3 of 6
survivor count [8]: 2 of 6

Nc1ccc(N)c(N)n1
survivor count (T/C endpoint: mean survival time, dose: 75.0 mg/kg/injection, schedule: Q01DX001 (ip), vehicle: saline): 0 of 6
survivor count [9]: 0 of 6
survivor count [10]: 0 of 6

CCN(CC)CC(=O)NCC(CCCCN1CCCC1)(c1cccc2ccccc12)C(C)C (stereo unspecified)
survivor count [1]: 0 of 6
survivor count [2]: 0 of 6
survivor count [3]: 0 of 6

CC(C)CCCC(C)C1CCC2C3CC=C4CC([S+](C)C)CCC4(C)C3CCC12C (stereo unspecified)
survivor count [1]: 6 of 6
survivor count (T/C endpoint: mean survival time, dose: 200.0 mg/kg/injection, schedule: Q04DX003 (ip), vehicle: alcohol): 6 of 6
survivor count (T/C endpoint: mean survival time, dose: 400.0 mg/kg/injection, schedule: Q04DX003 (ip), vehicle: alcohol): 5 of 6

CC(CNC(=O)CCOS(C)(=O)=O)CNC(=O)CCOS(C)(=O)=O
T/C (T/C endpoint: mean survival time, dose: 264.0 mg/kg/injection, schedule: Q04DX003 (ip), vehicle: other): 131 % of control
T/C (T/C endpoint: mean survival time, dose: 300.0 mg/kg/injection, schedule: Q01DX009 (ip), vehicle: other): 133 % of control
T/C (T/C endpoint: mean survival time, dose: 400.0 mg/kg/injection, schedule: Q04DX003 (ip), vehicle: other): 130 % of control (2×)
T/C [7]: 131 % of control

COc1cc2c(cc1OC)C(=O)Cc1ccc3c(c1CN(C)CC2)OCO3
survivor count [11]: 6 of 6

CC1(C)N=C(c2ccccc2)C(c2ccccc2)=N1
survivor count [11]: 3 of 6

Cc1cc(Cl)ccc1OCC(=O)Oc1c(Cl)c(Cl)c(Cl)c(Cl)c1Cl
survivor count [12]: 3 of 3

CC1(C)CC(=O)C2=C(C1)Nc1ccccc1NC2c1ccccc1 (stereo unspecified)
T/C [5]: 127 % of control
survivor count [12]: 3 of 3

Cc1cc[n+](C2CC(C)(C)c3ccccc3C2=O)cc1 (stereo unspecified)
survivor count (T/C endpoint: mean survival time, dose: 100.0 mg/kg/injection, schedule: Q01DX001 (ip), vehicle: Klucel (hydroxypropylcellulose) (HPC)): 3 of 6
survivor count (T/C endpoint: mean survival time, dose: 200.0 mg/kg/injection, schedule: Q01DX001 (ip), vehicle: Klucel (hydroxypropylcellulose) (HPC)): 0 of 6
survivor count (T/C endpoint: mean survival time, dose: 400.0 mg/kg/injection, schedule: Q01DX001 (ip), vehicle: Klucel (hydroxypropylcellulose) (HPC)): 0 of 6

Cc1ccc(S(=O)(=O)Nc2ccccc2C(=O)c2ccc(C)c(C)c2)cc1
survivor count (T/C endpoint: mean survival time, dose: 200.0 mg/kg/injection, schedule: Q01DX001 (ip), vehicle: carboxymethylcellulose (CMC)): 2 of 4
survivor count [4]: 0 of 4

CC(C)N(CCCO)C(C)C
survivor count (T/C endpoint: mean survival time, dose: 400.0 mg/kg/injection, schedule: Q04DX003 (ip), vehicle: saline with Tween-80): 0 of 6

NNc1ncccn1
survivor count (T/C endpoint: mean survival time, dose: 40.0 mg/kg/injection, schedule: Q01DX001 (ip), vehicle: saline): 0 of 6
survivor count (T/C endpoint: mean survival time, dose: 80.0 mg/kg/injection, schedule: Q01DX001 (ip), vehicle: saline): 0 of 6

C=CC[N+](C)(C)C
survivor count [9]: 0 of 6
survivor count [10]: 0 of 6

C=CC1CN2CCC1CC2C(O)c1ccnc2ccc(OC)cc12 (stereo unspecified)
survivor count (T/C endpoint: mean survival time, dose: 100.0 mg/kg/injection, schedule: Q01DX001 (ip), vehicle: saline): 6 of 6
survivor count (T/C endpoint: mean survival time, dose: 150.0 mg/kg/injection, schedule: Q01DX009 (ip), vehicle: saline with Tween-80): 0 of 6
survivor count (T/C endpoint: mean survival time, dose: 219.6 mg/kg/injection, schedule: Q01DX Z (ip), vehicle: other): 5 of 10
survivor count (T/C endpoint: mean survival time, dose: 300.0 mg/kg/injection, schedule: Q01DX009 (ip), vehicle: saline with Tween-80): 0 of 6
survivor count [8]: 0 of 6

O=C1c2cscc2C(=O)c2c(Cl)sc(Cl)c21
survivor count (T/C endpoint: mean survival time, dose: 200.0 mg/kg/injection, schedule: Q04DX003 (ip), vehicle: acetone): 5 of 6
survivor count (T/C endpoint: mean survival time, dose: 400.0 mg/kg/injection, schedule: Q04DX003 (ip), vehicle: acetone): 4 of 6

Cc1ccc(P(=O)(O)O)cc1C
survivor count [7]: 2 of 6

Brc1cccc[n+]1Cc1ccc(C[n+]2ccccc2Br)cc1
survivor count (T/C endpoint: mean survival time, dose: 1.55 mg/kg/injection, schedule: Q01DX Z (ip), vehicle: saline): 3 of 6
survivor count (T/C endpoint: mean survival time, dose: 4.0 mg/kg/injection, schedule: Q01DX Z (ip), vehicle: saline): 2 of 6

CC(O)C/C=N\N=C(N)N (stereo unspecified)
survivor count (T/C endpoint: mean survival time, dose: 30.0 mg/kg/injection, schedule: Q01DX Z (ip), vehicle: methylcellulose (MC)): 0 of 6
survivor count (T/C endpoint: mean survival time, dose: 60.0 mg/kg/injection, schedule: Q01DX Z (ip), vehicle: methylcellulose (MC)): 0 of 6
survivor count (T/C endpoint: mean survival time, dose: 120.0 mg/kg/injection, schedule: Q01DX Z (ip), vehicle: methylcellulose (MC)): 0 of 6

Cc1cnc(N(C)CC(=O)O)nc1-c1ccccc1O
survivor count [12]: 3 of 3

CC(C)c1ccccc1SCC1=NCCN1
survivor count (T/C endpoint: mean survival time, dose: 40.0 mg/kg/injection, schedule: Q04DX003 (ip), vehicle: Klucel (hydroxypropylcellulose) (HPC)): 0 of 6
survivor count (T/C endpoint: mean survival time, dose: 100.0 mg/kg/injection, schedule: Q04DX003 (ip), vehicle: Klucel (hydroxypropylcellulose) (HPC)): 0 of 6
survivor count (T/C endpoint: mean survival time, dose: 200.0 mg/kg/injection, schedule: Q04DX003 (ip), vehicle: Klucel (hydroxypropylcellulose) (HPC)): 0 of 6
survivor count [6]: 0 of 6
